# The whole screen tested about 400,000 compounds, of which about 13,000 (3.2%) were called active. The inconclusive results got no clear call from the source; some entries with a clear call stand among them for comparison. Calls follow the shape of the dose curve; as a rule, active = well fitted cell-killing curve with a large enough effect; inconclusive = small, poorly fitted or top-dose-only effect, or effect the other way; inactive = flat fitted curve, though single readings scatter. A potency beside an inconclusive call is a rough fit, not a confirmed value.
# Assay: qHTS assay for MDR1-selective chemotherapeutics: Primary screen using the drug-selected MDR subline cells KB-V1; also: nearly all actives have a fitted effect of over 60% in size
# Conditions: KB-V1 MDR cells viability, CellTiter-Glo, 72 h; activity change, negative = cytotoxicity: at 46.1 µM (top of the series)
# Method in brief: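 KB-V1 cells (P-gp-expressing MDR subline of KB-3-1) in phenol-red-free DMEM with 10% FBS were exposed to library compounds over a concentration series for 72 h at 37 degrees C. Viability read by CellTiter-Glo luminescence; concentration-effect curves fitted after normalization.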
# % is scaled to controls: 0 for no effect and ±100 for the full control effect; potency is read from the fitted curve at half-maximal effect.
SMILES,Potency,"activity change, negative = cytotoxicity"
N#CC1=C(N)Oc2c(O)cc3ccccc3c2C1c1ccsc1 (stereo not drawn),"inconclusive: 29.1 µM [cytotoxic, single point]",
COC(=O)c1[nH]c2ccccc2c1Sc1ccccc1,"inconclusive: 29.1 µM [cytotoxic, single point]",
CCCOc1ccc(N2C(=O)CC(N(CCc3ccc(OC)c(OC)c3)C(=S)Nc3ccccc3)C2=O)cc1 (stereo not drawn),"inconclusive: 32.6 µM [cytotoxic, partial curve, poor fit]",
CCCNC(=O)C1(C)CCCN(Cc2csc(-c3ccccc3)n2)C1 (stereo not drawn),,inactive: -8.96%
CN1CC(c2ccccc2)C2(SC(=S)N(Cc3ccco3)C2=O)C12C(=O)Nc1ccccc12 (stereo not drawn),"inconclusive: 29.1 µM [cytotoxic, single point]",
O=C(CSc1nnnn1-c1cccc(F)c1)NC1CCCCC1,active: 18.4 µM,
CC(C)N=c1c([N+](=O)[O-])nn(C)n1O,,inactive: -21.9%
COC(=O)c1ccc(CN2C(=O)C3CCCCC3C2=O)o1 (stereo not drawn),"inconclusive: 29.1 µM [rising, partial curve, poor fit]",
COc1cc(C2NC(=O)NC(C)=C2C(=O)Nc2cc(C)cc(C)c2)ccc1O (stereo not drawn),,inactive: 15.2%
O=S1(=O)C[C@H](N2CCN(CCO)CC2)[C@@H](COCc2ccccc2)N1,,inactive: 29.1%
COc1cc(/C=N/NC(=O)c2ccc(O)cc2)ccc1Oc1ccc([N+](=O)[O-])cn1,,inactive: -0.145%
Cc1ccccc1CSCCNC(=O)CN(c1ccc2c(c1)OCO2)S(C)(=O)=O,"inconclusive: 16.4 µM [cytotoxic, partial curve]",
Cc1ccc(C(=O)CSc2nnc(-c3ccccc3N)n2C)cc1,"inconclusive: 29.1 µM [cytotoxic, single point]",
Cc1ccc2c(c1)[nH]c1c(N3CCN(Cc4ccccc4)CC3)ncnc12,"inconclusive: 16.4 µM [cytotoxic, partial curve, poor fit]",
CCOC(=O)c1noc2ncnc(N3CCN(c4ccccc4OC)CC3)c12,"inconclusive: 29.1 µM [cytotoxic, single point]",
CCCCn1c(-c2nonc2N)nc2ccccc21,"inconclusive: 29.1 µM [cytotoxic, single point]",
CCOCCCNC(=O)c1ccc2c(c1)N=C(CC)c1cc(Br)ccc1S2,active: 0.517 µM,
CCOC(=O)NC(=O)c1cn(Nc2ccccc2C(F)(F)F)c(=O)[nH]c1=O,,inactive: 5.68%
O=C(Cc1c(F)c(F)c(F)c(F)c1F)Nc1nc(-c2ccccc2)cs1,"inconclusive: 18.4 µM [cytotoxic, single point]",
CC(C)c1nc(SCC(=O)N2CCCCCC2)c2c(=O)n(C)c(=O)n(C)c2n1,"inconclusive: 18.4 µM [cytotoxic, single point]",
COC(=O)CNC(=O)Nc1cc(C(=O)NCc2ccc(C)cc2)ccc1N1CCCC1,"inconclusive: 10.3 µM [rising, partial curve, poor fit]",
CC(=O)CSc1cc(C)nc2c(-c3ccccc3)c(C)nn12,"inconclusive: 11.6 µM [cytotoxic, partial curve]",
CCOC(=O)C[C@H]1c2cc(F)ccc2S(=O)(=O)N1C1CCCC1,"inconclusive: 18.4 µM [cytotoxic, partial curve]",

SMILES,Potency,"activity change, negative = cytotoxicity"
CCn1c(=O)n(CC)c2cc(S(=O)(=O)N3CCCCC3)c(C)cc21,"inconclusive: 13 µM [cytotoxic, partial curve]",
COc1cc(SC)ccc1C(=O)N1CCN(Cc2ccccc2)CC1,"inconclusive: 20.6 µM [cytotoxic, single point]",
CC(=O)c1ccc(NC(=O)c2noc(C(C)C)c2[N+](=O)[O-])cc1,,inactive: 13.8%
CN(C)c1ccc(/C=C/c2ccc3c4ccccc4ccc3[n+]2-c2ccccc2)cc1,active: 9.2 µM,
Cc1ccc2c(COC(=O)c3c(C)noc3C)cc(=O)oc2c1,"inconclusive: 10.3 µM [cytotoxic, partial curve]",
CC(C)(C)NS(=O)(=O)c1ccc2nc(NC(=O)c3cccnc3)sc2c1,"inconclusive: 32.6 µM [rising, single point]",
CC(=O)c1sc(N/N=C\c2cccc(Br)c2)nc1C,"inconclusive: 8.2 µM [rising, single point]",
c1coc(CNc2nc(N3CCCCC3)nc3ccccc23)c1,"inconclusive: 18.4 µM [cytotoxic, partial curve, poor fit]",
Cc1ccc2cc(CN(Cc3ccco3)C(=S)NCC3CCCO3)c(=O)[nH]c2c1 (stereo not drawn),"inconclusive: 7.31 µM [cytotoxic, partial curve]",
COC(=O)CN(c1nc(C)cc(OC)n1)S(=O)(=O)c1ccc(C)cc1,"inconclusive: 20.6 µM [cytotoxic, single point]",
CCc1nnc(NC(=O)C2CCN(c3ncnc4sc(C)c(C)c34)CC2)s1,"inconclusive: 2.06 µM [cytotoxic, partial curve, poor fit]",
CN(c1cccc(NC(=O)CN(c2ccc(C34CC5CC(CC(C5)C3)C4)cc2)S(C)(=O)=O)c1)S(C)(=O)=O,active: 18.4 µM,
COc1ccc(OC)c(/C=C/C(=O)OCC(=O)Nc2ccc3c(c2)OCCO3)c1,"inconclusive: 20.6 µM [cytotoxic, single point]",
Fc1cccc(-n2ncc(-c3nnnn3-c3ccccc3)c2C(F)(F)F)c1,"inconclusive: 20.6 µM [cytotoxic, single point]",
COC(=O)C1CCN(S(=O)(=O)c2cc3c4c(c2)C(C)C(=O)N4CCC3)CC1 (stereo not drawn),,inactive: -1%
O=[N+]([O-])c1ccccc1OCCCn1cnc2ccccc21,active: 7.31 µM,
CCN(CC)S(=O)(=O)c1cc(C(=O)Oc2ccccc2OC)ccc1OC,"inconclusive: 18.4 µM [cytotoxic, single point]",
CC1(C(=O)NS(=O)(=O)c2ccccc2C(F)(F)F)CCN1C(=O)CCc1ccccc1 (stereo not drawn),,inactive: 5.34%
CCc1cc(C(=O)Nc2c(C)nn(Cc3ccc(C)cc3)c2C)no1,"inconclusive: 18.4 µM [cytotoxic, partial curve, poor fit]",
COc1ccc(C2CC(C)=C(C#N)S(=O)(=O)C2C#N)cc1 (stereo not drawn),"inconclusive: 18.4 µM [rising, single point]",
COc1cc(C(=O)NNC(=S)NC(=O)c2ccccc2C)cc(OC)c1OC,"inconclusive: 25.9 µM [cytotoxic, single point]",
CCOC(=O)c1c(NC(=O)CSc2nnc(-c3ccccc3)o2)sc(C(C)=O)c1C,"inconclusive: 29.1 µM [cytotoxic, partial curve, poor fit]",
CC(=O)NC1C(=O)N(CCc2ccccc2)c2ccc(Br)cc21 (stereo not drawn),active: 5.8 µM,

SMILES,Potency,"activity change, negative = cytotoxicity"
CC1(c2ccc3c(c2)OCO3)NC(=O)N(CC(=O)Nc2ccccc2[N+](=O)[O-])C1=O (stereo not drawn),active: 14.6 µM,
Cc1nn2c(NCc3ccccn3)c3c(nc2c1-c1ccccc1)CCC3,active: 9.2 µM,
Cc1cccc(NC(=O)c2ccc(S(=O)(=O)N3CCCCC3C)cc2)n1 (stereo not drawn),"inconclusive: 8.2 µM [cytotoxic, partial curve]",
COc1ccc(CCNC(=O)CCn2c(=O)c3cccn3c3ccc(F)cc32)c(OC)c1OC,,inactive: 24.6%
COc1ccccc1N1CCN(C(=O)c2nn(-c3ccccc3OC)c(=O)c3ccccc23)CC1,"inconclusive: 14.6 µM [cytotoxic, partial curve, poor fit]",
CCc1nc2c(OCc3ccccc3)cccn2c1N(Cc1ccccc1)C(C)=O,"inconclusive: 3.26 µM [cytotoxic, partial curve]",
Cc1cc(C(=O)CSc2nc(N)cc(N)n2)c(C)n1CCc1ccc(F)cc1,"inconclusive: 29.1 µM [cytotoxic, single point]",
Cc1ccc(-c2nnc(SCC(N)=O)n2C)cc1,"inconclusive: 0.0058 µM [rising, full curve, poor fit]",
COc1ccc(C(O)(CCC(C)C)C(CN2CCOCC2)c2ccc(Cl)cc2)cc1 (stereo not drawn),active: 25.9 µM,
CN(C)S(=O)(=O)c1ccc(Cl)c(NC(=O)COC(=O)c2cc(-c3ccccc3)nc3ccccc23)c1,"inconclusive: 20.6 µM [rising, single point]",
O=C(NCc1nnnn1-c1ccc(F)cc1)C(=O)c1c[nH]c2ccccc12,,inactive: -1.28%
Cc1c(CCO)c(=O)[nH]n1C(=O)c1c(F)cccc1F,"inconclusive: 20.6 µM [cytotoxic, single point]",
CCCN(C(=O)/C=C/c1ccc(S(=O)(=O)N(CC)CC)cc1)C1CCS(=O)(=O)C1 (stereo not drawn),active: 23.1 µM,
CC1(c2ccc(Cl)cc2)CC(C)(C)N(C(=O)c2ccccc2)c2ccccc21 (stereo not drawn),"inconclusive: 18.4 µM [cytotoxic, single point]",
COc1ccc(S(=O)(=O)N(CC(=O)NCc2ccccn2)c2ccc(Cl)cc2)cc1,"inconclusive: 2.91 µM [cytotoxic, full curve, poor fit]",
Cc1cc(O)c(C=Nc2ccc(N3CCOCC3)cc2)c(C)c1Cl,"inconclusive: 29.1 µM [rising, single point]",
c1ccc(CSc2ncccn2)cc1,,inactive: -0.407%
COc1ccccc1C1c2ccc3ccccc3c2Oc2ncn(CCN(C)C)c(=N)c21 (stereo not drawn),"inconclusive: 23.1 µM [cytotoxic, single point]",
Cc1cccc(NC(=O)CSc2nc3[nH]c(=O)cc(O)c3s2)c1,,inactive: -9.64%
CCCn1c(C)cc(C(=O)CN2C(=O)NC3(CCCCCC3)C2=O)c1C,"inconclusive: 5.8 µM [cytotoxic, partial curve]",
COc1ccc(/C=C/C(=O)O/N=C(\N)c2ccccn2)cc1OC,,inactive: -13.2%
Cc1ccc(NC(=O)c2ccc(Cl)c(NC(=O)c3cccs3)c2)cc1,,inactive: -19.6%

# Reference: PubChem BioAssay AID1347076 (National Center for Advancing Translational Sciences (NCATS), 2019)
